In the assay the target is T1, Bub1 kinase domain (Bub1^KinD, residues 725-1085) (human) (UniProt O43683).
T1 sequence: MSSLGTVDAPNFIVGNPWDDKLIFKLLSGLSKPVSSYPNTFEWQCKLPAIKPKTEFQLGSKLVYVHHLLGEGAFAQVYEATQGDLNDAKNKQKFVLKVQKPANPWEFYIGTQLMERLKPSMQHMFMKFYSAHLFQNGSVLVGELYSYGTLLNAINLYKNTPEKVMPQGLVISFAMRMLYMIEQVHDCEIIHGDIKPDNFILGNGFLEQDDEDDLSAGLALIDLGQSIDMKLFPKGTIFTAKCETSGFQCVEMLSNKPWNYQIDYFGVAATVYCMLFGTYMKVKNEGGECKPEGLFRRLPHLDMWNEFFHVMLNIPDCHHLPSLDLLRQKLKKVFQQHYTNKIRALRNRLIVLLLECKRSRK
Nature of the assay: SEC. On the technique in general: SEC sorts molecules by how far they enter the pores of the column.

Results are given in words; binding and its absence hold for the method and conditions named. Binding can be weak; no strength is given.

On to “mCherry-CENP-F^2866-2990 (Homo sapiens) (domain or fragment)”, for which the binding result is on record as “binds”.

For “mCherry-CENP-F^2922-2990 (Homo sapiens) (domain or fragment)”, the binding entry is reported as “binds”.

Values taken from doi:10.1101/276204 (bioRxiv, 2018).
